{"sequences": {"note": "Chains of the proteins cited; added tags and fusions are not shown. Residues count along the entry.", "UniProt Q92804, 231-323": "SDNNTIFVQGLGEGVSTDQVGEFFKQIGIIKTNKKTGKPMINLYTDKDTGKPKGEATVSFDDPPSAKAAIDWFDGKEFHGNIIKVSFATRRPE"}, "source": "paper PMC4661536", "molecular_target": "TAF15-RRM (Homo sapiens) (UniProt Q92804)", "assay": "NMR", "settings": "NMR: 20 mM Na phosphate pH 6.2, 25 mM NaCl, 5% D2O (RRM) or 25 mM Na2SO4, 5 mM beta-mercaptoethanol (TAF15-RRM-RanBP2), 298 K, recombinant protein, residues 231-323", "note": "Weaker means in comparison with the reference protein, sequence or condition of that experiment.", "data": [{"sequence": "CCUCUG [CUG motif 6-mer]", "values": [{"measurement": "binding result", "setting": "weak binding, seven residues with significant CSPs", "result": "binds more weakly"}]}, {"sequence": "GCUGCUG [CUG motif 7-mer, tandem CUG]", "values": [{"measurement": "binding result", "setting": "similar CSPs to single-CUG RNAs", "result": "binds more weakly"}]}, {"sequence": "GGCUGCG [CUG motif 7-mer, single CUG]", "values": [{"measurement": "binding result", "setting": "similar profile to CCUCUG", "result": "binds more weakly"}]}, {"sequence": "GGUGUG [GGU motif 6-mer]", "values": [{"measurement": "binding result", "setting": "few CSPs", "result": "binds more weakly"}]}]}
